Data set [1] in a line: Charge/discharge cycling and polarization of BQDS/hydrogen RFC.
Data set [2] in a line: Charge/discharge cycle of BQ/hydrogen redox flow battery at different flow rates. The settings on record: […] BQ in 1 M H2SO4, 60 mA/cm2, hydrogen 100 mL/min.
[3] abbreviates: 200 charge/discharge cycles at 100 mA cm^−2, […] BQDS in 1 M H2SO4.

Regarding `O=S(=O)([O-])c1cc(O)c(O)c(S(=O)(=O)[O-])c1.[Na+].[Na+]` [BQDS, 4,5-Dihydroxy-1,3-benzenedisulfonic acid disodium salt monohydrate], in data set [1] (setting [3]), the average current efficiency is recorded as 95% and the average energy efficiency came to 61%. In addition, the energy efficiency in data set [1] (at 100 mA cm^−2, single charge/discharge cycle) is reported as 67%. In data set [1] (cycling at 100 mA cm^−2), this molecule had a maximum charge capacity of 13.98 Ah L^−1 and a maximum energy density of 10.90 Wh L^−1.

`O=C1C=C(S(=O)(=O)O)C=C(S(=O)(=O)O)C1=O` [BQ]: the “Capacity Utilisation” value in data set [2] (BQ flow rate 30 mL/min) came to 58%; in data set [2] (BQ flow rate 50 mL/min) it was 68%; in data set [2] (BQ flow rate 100 mL/min), 56%.
